# Data taken from the supplement of paper PMC6411743.
# ± gives the standard deviation of the averaged measurements. The list shows a part of the results, in another mix than the full data.
# Legend:
# Experiment in all cases: NP40-soluble protein abundance relative to vehicle (solubility fold change) (ratio); higher = more soluble protein in presence of AMP-PNP
# [1] = molecular target: T1, PPM1F (UniProt P49593)
# T1 sequence (whole entry): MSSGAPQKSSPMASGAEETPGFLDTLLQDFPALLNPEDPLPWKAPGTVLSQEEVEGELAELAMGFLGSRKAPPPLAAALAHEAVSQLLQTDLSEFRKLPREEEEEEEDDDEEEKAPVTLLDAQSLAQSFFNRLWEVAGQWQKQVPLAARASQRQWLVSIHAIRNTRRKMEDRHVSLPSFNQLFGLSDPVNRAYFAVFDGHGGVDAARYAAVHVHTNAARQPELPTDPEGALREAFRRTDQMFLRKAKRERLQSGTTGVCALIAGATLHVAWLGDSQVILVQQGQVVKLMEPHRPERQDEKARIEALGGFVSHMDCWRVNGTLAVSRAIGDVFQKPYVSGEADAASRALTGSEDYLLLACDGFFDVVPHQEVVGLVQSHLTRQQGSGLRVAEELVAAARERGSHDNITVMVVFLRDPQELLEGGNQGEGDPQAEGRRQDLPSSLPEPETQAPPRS
# Procedure, shortened: (§1)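 Jurkat crude lysate (Dounce-homogenised) was treated with eight concentrations from 0.1 to 10 mM for 10 min at room temperature, then 3 min at 37 °C. It was solubilised with 0.8% NP40 and benzonase (60 min, 4 °C) and ultracentrifuged, and the supernatant was TMT-labelled for LC-MS/MS. Intensities were vsn-normalised, and the value is the fold change against the NP40-processed vehicle per replicate, from three independent experiments.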
# [2] = molecular target: T2, RAB9A (UniProt P51151)
# T2 sequence (whole entry): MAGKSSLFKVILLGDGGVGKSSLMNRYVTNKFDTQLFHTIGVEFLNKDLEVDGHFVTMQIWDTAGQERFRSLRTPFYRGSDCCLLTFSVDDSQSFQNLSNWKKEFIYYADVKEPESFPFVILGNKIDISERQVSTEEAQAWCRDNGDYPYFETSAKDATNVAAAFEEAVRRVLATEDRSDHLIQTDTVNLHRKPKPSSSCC
# Procedure, shortened: as §1
# [3] = molecular target: T3, SEC24C (UniProt P53992)
# T3 sequence (whole entry): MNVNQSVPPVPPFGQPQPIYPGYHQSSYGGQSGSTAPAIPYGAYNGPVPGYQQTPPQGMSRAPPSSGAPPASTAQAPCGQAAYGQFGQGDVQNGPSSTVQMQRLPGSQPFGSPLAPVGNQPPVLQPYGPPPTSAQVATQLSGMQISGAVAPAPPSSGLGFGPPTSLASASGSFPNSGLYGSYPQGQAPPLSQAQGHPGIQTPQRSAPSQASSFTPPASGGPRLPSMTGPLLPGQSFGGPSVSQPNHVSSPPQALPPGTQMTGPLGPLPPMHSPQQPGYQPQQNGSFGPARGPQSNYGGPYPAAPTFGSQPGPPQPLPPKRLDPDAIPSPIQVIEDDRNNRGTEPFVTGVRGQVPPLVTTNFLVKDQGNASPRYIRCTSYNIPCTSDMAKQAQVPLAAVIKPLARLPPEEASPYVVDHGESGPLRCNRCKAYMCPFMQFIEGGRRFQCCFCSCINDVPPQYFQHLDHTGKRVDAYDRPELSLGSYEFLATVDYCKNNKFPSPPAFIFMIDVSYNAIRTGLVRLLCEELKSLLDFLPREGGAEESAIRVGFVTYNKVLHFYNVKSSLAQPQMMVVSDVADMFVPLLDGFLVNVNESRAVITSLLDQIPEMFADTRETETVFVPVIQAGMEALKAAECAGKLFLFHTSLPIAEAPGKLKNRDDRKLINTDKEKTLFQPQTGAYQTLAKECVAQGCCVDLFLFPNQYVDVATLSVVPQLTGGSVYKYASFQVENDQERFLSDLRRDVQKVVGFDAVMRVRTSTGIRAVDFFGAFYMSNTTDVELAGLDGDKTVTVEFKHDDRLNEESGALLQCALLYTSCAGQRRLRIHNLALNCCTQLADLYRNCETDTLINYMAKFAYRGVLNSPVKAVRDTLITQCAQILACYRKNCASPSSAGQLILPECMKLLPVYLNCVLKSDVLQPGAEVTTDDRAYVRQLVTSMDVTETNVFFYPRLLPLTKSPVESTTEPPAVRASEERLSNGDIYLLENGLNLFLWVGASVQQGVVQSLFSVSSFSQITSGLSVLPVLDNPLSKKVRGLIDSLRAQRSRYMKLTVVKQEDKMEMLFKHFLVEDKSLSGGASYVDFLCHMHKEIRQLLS
# Procedure, shortened: as §1
# [4] = molecular target: T4, SLC12A2 (UniProt P55011)
# T4 sequence (whole entry): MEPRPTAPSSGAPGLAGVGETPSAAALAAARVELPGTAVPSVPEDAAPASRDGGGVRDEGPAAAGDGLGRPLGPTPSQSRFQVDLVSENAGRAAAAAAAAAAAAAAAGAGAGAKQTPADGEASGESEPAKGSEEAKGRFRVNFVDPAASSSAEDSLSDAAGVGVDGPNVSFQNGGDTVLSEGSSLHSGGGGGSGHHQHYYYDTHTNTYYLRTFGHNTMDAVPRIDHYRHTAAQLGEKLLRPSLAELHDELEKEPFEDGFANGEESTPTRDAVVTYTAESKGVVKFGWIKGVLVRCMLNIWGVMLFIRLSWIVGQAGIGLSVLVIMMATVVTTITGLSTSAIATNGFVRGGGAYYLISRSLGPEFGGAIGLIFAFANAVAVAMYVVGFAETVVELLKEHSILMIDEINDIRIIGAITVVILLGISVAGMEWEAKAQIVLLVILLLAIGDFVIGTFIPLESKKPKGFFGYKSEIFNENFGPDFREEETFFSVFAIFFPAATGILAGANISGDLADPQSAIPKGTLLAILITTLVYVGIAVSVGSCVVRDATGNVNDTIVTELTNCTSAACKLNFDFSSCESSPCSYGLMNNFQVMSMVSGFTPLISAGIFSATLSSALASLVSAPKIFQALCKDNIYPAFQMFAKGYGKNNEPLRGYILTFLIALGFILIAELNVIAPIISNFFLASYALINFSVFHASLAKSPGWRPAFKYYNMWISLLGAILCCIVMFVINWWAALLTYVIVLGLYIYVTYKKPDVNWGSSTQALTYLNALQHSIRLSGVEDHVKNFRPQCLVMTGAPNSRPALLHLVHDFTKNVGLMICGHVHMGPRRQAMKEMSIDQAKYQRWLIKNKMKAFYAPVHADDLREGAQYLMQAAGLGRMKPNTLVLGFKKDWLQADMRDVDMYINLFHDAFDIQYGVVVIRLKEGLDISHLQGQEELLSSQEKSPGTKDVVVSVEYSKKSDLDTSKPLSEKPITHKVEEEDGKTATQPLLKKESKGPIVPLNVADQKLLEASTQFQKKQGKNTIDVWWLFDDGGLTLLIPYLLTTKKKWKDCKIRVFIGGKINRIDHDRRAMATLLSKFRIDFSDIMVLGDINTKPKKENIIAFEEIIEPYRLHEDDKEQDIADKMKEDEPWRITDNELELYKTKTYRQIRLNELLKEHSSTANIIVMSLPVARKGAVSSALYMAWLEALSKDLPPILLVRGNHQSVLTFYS
# Procedure, shortened: as §1
# [5] = molecular target: T5, TMED10 (UniProt P49755)
# T5 sequence (whole entry): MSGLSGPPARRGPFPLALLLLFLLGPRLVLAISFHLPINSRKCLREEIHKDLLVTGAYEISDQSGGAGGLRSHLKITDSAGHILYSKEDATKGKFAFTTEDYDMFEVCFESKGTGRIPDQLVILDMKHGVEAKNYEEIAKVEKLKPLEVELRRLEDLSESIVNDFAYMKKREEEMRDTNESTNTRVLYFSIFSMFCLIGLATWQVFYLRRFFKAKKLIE
# Procedure, shortened: as §1
# [6] = molecular target: T6, UQCRFS1 (UniProt P47985)
# T6 sequence (whole entry): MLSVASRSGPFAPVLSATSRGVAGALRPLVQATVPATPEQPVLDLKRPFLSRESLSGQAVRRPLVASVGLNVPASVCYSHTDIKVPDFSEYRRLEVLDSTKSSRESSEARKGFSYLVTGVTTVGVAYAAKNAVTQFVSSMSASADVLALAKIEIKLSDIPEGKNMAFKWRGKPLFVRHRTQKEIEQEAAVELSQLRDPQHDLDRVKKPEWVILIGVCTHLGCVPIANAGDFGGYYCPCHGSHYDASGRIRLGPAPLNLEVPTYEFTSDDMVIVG
# Procedure, shortened: as §1
compound,measurement,setting,value
Nc1ncnc2c1ncn2[C@@H]1O[C@H](COP(=O)(O)OP(=O)(O)NP(=O)(O)O)[C@@H](O)[C@H]1O [adenylyl imidodiphosphate],NP40-soluble protein abundance,[1]; concentration: 2mM,1.019 ± 0.0062
same,NP40-soluble protein abundance,[1]; concentration: 4mM,1.03 ± 0.011
same,NP40-soluble protein abundance,[1]; concentration: 6mM,1.014 ± 0.0081
same,NP40-soluble protein abundance,[1]; concentration: 8mM,1.02 ± 0.013
same,NP40-soluble protein abundance,[1]; concentration: 10mM,1.04 ± 0.018
same,NP40-soluble protein abundance,[2]; concentration: 1mM,0.989 ± 0.035
same,NP40-soluble protein abundance,[2]; concentration: 2mM,0.957 ± 0.045
same,NP40-soluble protein abundance,[2]; concentration: 4mM,0.979 ± 0.017
same,NP40-soluble protein abundance,[2]; concentration: 6mM,1 ± 0.045
same,NP40-soluble protein abundance,[2]; concentration: 8mM,0.96 ± 0.032
same,NP40-soluble protein abundance,[2]; concentration: 10mM,0.9608 ± 0.0061
same,NP40-soluble protein abundance,[3]; concentration: 1mM,0.973 ± 0.025
same,NP40-soluble protein abundance,[3]; concentration: 2mM,0.921 ± 0.05
same,NP40-soluble protein abundance,[3]; concentration: 4mM,0.9789 ± 0.0097
same,NP40-soluble protein abundance,[3]; concentration: 6mM,0.985 ± 0.05
same,NP40-soluble protein abundance,[3]; concentration: 8mM,0.9994 ± 0.0051
same,NP40-soluble protein abundance,[3]; concentration: 10mM,0.9523 ± 0.0086
same,NP40-soluble protein abundance,[4]; concentration: 1mM,1.01 ± 0.017
same,NP40-soluble protein abundance,[4]; concentration: 2mM,1.02 ± 0.012
same,NP40-soluble protein abundance,[4]; concentration: 4mM,1.02 ± 0.035
same,NP40-soluble protein abundance,[4]; concentration: 6mM,0.974 ± 0.037
same,NP40-soluble protein abundance,[4]; concentration: 8mM,0.959 ± 0.042
same,NP40-soluble protein abundance,[4]; concentration: 10mM,0.972 ± 0.05
same,NP40-soluble protein abundance,[5]; concentration: 1mM,1.03 ± 0.048
same,NP40-soluble protein abundance,[5]; concentration: 2mM,0.992 ± 0.06
same,NP40-soluble protein abundance,[5]; concentration: 4mM,0.985 ± 0.028
same,NP40-soluble protein abundance,[5]; concentration: 6mM,0.985 ± 0.041
same,NP40-soluble protein abundance,[5]; concentration: 8mM,0.974 ± 0.042
same,NP40-soluble protein abundance,[5]; concentration: 10mM,0.997 ± 0.097
same,NP40-soluble protein abundance,[6]; concentration: 1mM,1.02 ± 0.054
same,NP40-soluble protein abundance,[6]; concentration: 2mM,0.954 ± 0.026
same,NP40-soluble protein abundance,[6]; concentration: 4mM,0.974 ± 0.057

# Exported as tab-separated lines: part of the list above
compound	measurement	setting	value
Nc1ncnc2c1ncn2[C@@H]1O[C@H](COP(=O)(O)OP(=O)(O)NP(=O)(O)O)[C@@H](O)[C@H]1O [adenylyl imidodiphosphate]	NP40-soluble protein abundance	[2]; concentration: 1mM	0.989 ± 0.035
same	NP40-soluble protein abundance	[3]; concentration: 1mM	0.973 ± 0.025
